The values below come from patent publication US20260125472A1.

Chains of the proteins cited; added tags and fusions are not shown. Lines headed by an entry give the natural chain unless they say otherwise; changes in a name come on top.
UniProt P04234: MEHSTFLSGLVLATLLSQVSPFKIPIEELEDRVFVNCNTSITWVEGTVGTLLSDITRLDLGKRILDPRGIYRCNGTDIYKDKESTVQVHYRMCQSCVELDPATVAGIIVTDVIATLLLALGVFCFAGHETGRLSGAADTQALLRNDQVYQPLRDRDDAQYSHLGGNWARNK
UniProt P07766: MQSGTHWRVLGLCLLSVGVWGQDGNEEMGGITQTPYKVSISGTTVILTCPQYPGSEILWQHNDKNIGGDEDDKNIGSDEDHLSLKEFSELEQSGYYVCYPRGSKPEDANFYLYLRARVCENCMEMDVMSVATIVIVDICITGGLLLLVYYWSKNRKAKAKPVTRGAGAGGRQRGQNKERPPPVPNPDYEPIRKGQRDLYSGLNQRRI

Residue numbers refer to the chain shown, from its start. Results are given in words; binding and its absence hold for the method and conditions named. Some entries that bind do so weakly or less than the wild type.

The labels stand for the following.
B1: Cross309 (antibody, human IgG1, kappa, V domains shown)
VH: EVQLLESGGGLVQPGGSLKLSCAASGFTFNTYAMNWVRQAPGKGLEWVARIRSKYNNYATYYADSVKDRFTISRDDSKNTAYLQMNNLKTEDTAVYYCVRHGNFGNVYVSWFAYWGQGTLVTVSS
VL: ELVVTQEPSLTVSPGGTVTLTCRSSTGAVTTSNYANWVQQKPGQAPRGLIGGTNKRAPGTPARFSGSLLGGKAALTLSGVQPEDEAEYYCALWYSNLWVFGGGTKLTVLR
B2: Cross307 (antibody, human IgG1, kappa, V domains shown)
VH: B1 VH with V107E
VL: B1 VL
B3: Cross308 (antibody, human IgG1, kappa, V domains shown)
VH: B1 VH with V107P
VL: B1 VL
B4: Cross303 (antibody, human IgG1, kappa, V domains shown)
VH: B1 VH with N103M, V107S
VL: B1 VL
B5: Cross310 (antibody, human IgG1, kappa, V domains shown)
VH: B1 VH with V107Y
VL: B1 VL
B6: Cross318 (antibody, human IgG1, kappa, V domains shown)
VH: B1 VH with V107S, Y114M
VL: B1 VL
B7: Cross316 (antibody, human IgG1, kappa, V domains shown)
VH: B1 VH with V107S, A113L
VL: B1 VL
B8: Cross313 (antibody, human IgG1, kappa, V domains shown)
VH: B1 VH with V107S, V109Q
VL: B1 VL
B9: Cross311 (antibody, human IgG1, kappa, V domains shown)
VH: B1 VH with V107S, Y108E
VL: B1 VL
B10: Cross312 (antibody, human IgG1, kappa, V domains shown)
VH: B1 VH with V107S, V109H
VL: B1 VL
B11: Cross317 (antibody, human IgG1, kappa, V domains shown)
VH: B1 VH with V107S, Y114G
VL: B1 VL
B12: Cross314 (antibody, human IgG1, kappa, V domains shown)
VH: B1 VH with V107S, V109S
VL: B1 VL

The target in the first assay is CD3E&D protein (UniProt P04234). As to the kind of experiment: ELISA, coated CD3E&D protein, OD450 [panel A].
Regarding B1, the binding result was “binds”.

For the molecule B2, the binding entry is “binds”.

As for B3, the binding result is given as “binds”.

Regarding B4, the binding entry was “binds”.

B5: the binding entry is recorded as “binds”.

A further assay shares this target. The assay is described as follows: ELISA, CD3E&D coated on plate.
For B1, the binding result is “binds”.

For B6, the binding entry was “binds”.

Regarding B2, the binding result is listed as “binds”.

B7: the binding result is on record as “binds”.

In the case of B3, the binding result is “binds”.

B4: the binding result was “binds”.

With B8, the binding entry is “binds”.

With B9, the binding result was “binds”.

As for B10, the binding entry is reported as “binds”.

On to B11, for which the binding result is “binds”.

For B12, the binding entry is “binds”.

Take B5: the binding result is “binds”.

The target is the same in another assay. The assay is described as follows: ELISA, coated CD3E&D protein, OD450 [panel B].
Turning to B6, the binding result is “binds”.

Take B7: the binding entry was “binds”.

With B8, the binding entry is on record as “binds”.

With B9, the binding entry is reported as “binds”.

On to B10, for which the binding result was “binds”.

Regarding B11, the binding entry is on record as “binds”.

As for B12, the binding entry is on record as “binds”.

Another assay addresses CD3 on CD8 T cells (Homo sapiens (Human)) (UniProt P07766). The assay is described as follows: flow cytometry on CD8 T cells of PBMCs.
For B1, the binding entry is on record as “binds”.

Turning to B6, the binding result was “binds”.

On to B7, for which the binding entry is reported as “binds”.

Turning to B8, the binding result is given as “binds”.

For B9, the binding result was “binds”.

Consider B10, for which the binding entry was “binds”.

As to B11, the binding result is given as “binds”.

B12: the binding entry was “binds”.

In the case of B5, the binding entry is recorded as “binds”.

For the next assay the target is unchanged. The assay is described as follows: flow cytometry, CD8 T cells in PBMCs, binding ratio % (A) and MFI (B) [panels A, B].
In the case of B1, the binding result was “binds”.

For B6, the binding entry is “binds”.

In the case of B7, the binding result was “binds”.

As to B8, the binding entry was “binds”.

In the case of B9, the binding result is “binds”.

For B10, the binding entry is given as “binds”.

Consider B11, for which the binding entry is reported as “binds”.

For the molecule B12, the binding result is given as “binds”.

Take B5: the binding result is “binds”.
